Test results as given in paper PMC10319587.
No constants are given. Whether binding was seen depends on the method and setting. Binding seen in cells or lysates may run through a third protein. Some binding calls cover weakened binding; strength is not graded here.

Sequences of proteins named here, by UniProt entry; tags and fusion partners are left off.
UniProt Q09472: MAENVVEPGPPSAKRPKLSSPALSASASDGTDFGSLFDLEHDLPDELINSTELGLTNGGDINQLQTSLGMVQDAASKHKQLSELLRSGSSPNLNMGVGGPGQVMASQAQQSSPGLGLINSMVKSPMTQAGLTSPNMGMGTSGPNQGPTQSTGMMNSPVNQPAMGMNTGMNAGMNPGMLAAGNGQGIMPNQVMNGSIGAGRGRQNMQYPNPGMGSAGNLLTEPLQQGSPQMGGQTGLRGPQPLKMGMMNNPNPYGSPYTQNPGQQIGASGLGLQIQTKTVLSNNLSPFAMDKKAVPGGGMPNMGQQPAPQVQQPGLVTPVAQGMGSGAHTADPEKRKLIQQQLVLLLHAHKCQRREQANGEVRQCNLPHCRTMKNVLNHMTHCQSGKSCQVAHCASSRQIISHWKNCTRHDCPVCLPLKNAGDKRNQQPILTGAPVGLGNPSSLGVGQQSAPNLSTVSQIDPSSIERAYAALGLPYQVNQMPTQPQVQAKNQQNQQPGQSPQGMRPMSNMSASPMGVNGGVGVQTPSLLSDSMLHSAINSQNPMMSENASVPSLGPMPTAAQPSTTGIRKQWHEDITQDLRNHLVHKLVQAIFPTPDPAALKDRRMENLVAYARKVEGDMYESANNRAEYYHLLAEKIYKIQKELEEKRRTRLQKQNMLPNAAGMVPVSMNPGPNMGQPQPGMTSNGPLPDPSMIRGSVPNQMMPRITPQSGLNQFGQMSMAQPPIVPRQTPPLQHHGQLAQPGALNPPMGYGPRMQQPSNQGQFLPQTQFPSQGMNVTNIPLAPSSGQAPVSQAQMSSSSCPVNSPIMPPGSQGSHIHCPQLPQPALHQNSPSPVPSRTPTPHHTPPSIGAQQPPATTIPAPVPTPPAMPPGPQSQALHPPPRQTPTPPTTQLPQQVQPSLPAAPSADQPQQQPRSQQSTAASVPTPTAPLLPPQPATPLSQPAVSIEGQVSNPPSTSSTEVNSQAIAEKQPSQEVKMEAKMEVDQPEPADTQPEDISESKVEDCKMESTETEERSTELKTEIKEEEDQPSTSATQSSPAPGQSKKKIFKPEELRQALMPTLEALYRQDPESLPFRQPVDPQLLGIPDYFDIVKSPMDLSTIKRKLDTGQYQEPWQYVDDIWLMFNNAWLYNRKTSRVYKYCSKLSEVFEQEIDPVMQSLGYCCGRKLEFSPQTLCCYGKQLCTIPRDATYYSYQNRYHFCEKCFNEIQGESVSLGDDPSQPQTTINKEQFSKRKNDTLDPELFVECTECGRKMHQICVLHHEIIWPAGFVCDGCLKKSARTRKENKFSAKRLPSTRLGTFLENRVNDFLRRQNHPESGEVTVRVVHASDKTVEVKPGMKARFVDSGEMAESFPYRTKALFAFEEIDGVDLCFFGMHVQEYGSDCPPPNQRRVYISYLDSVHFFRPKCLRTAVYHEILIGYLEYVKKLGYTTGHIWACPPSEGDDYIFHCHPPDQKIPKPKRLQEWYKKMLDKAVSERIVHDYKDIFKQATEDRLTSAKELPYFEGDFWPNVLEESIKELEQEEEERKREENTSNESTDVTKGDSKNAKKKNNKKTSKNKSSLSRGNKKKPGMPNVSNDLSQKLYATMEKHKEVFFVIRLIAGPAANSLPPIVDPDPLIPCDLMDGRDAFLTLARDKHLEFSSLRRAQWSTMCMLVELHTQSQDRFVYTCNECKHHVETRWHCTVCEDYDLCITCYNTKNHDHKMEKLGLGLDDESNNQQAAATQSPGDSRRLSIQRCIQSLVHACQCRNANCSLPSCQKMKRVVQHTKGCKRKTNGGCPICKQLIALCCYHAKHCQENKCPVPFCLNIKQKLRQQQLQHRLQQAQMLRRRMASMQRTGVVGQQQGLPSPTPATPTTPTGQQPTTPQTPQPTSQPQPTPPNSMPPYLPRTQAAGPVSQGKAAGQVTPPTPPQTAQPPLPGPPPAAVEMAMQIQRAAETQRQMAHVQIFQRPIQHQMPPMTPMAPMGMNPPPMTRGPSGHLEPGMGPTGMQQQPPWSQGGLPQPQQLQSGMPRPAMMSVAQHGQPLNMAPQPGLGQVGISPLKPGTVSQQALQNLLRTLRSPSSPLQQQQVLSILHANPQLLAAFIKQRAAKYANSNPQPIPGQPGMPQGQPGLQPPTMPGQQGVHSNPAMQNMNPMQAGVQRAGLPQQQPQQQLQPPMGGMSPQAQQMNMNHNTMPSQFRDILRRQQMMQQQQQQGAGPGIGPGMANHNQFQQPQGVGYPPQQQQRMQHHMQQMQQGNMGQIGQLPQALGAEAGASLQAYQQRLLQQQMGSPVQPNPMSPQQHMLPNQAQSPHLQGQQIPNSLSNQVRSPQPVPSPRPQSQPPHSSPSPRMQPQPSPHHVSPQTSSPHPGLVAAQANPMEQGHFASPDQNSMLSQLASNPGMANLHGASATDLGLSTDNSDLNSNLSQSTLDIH
UniProt Q15796: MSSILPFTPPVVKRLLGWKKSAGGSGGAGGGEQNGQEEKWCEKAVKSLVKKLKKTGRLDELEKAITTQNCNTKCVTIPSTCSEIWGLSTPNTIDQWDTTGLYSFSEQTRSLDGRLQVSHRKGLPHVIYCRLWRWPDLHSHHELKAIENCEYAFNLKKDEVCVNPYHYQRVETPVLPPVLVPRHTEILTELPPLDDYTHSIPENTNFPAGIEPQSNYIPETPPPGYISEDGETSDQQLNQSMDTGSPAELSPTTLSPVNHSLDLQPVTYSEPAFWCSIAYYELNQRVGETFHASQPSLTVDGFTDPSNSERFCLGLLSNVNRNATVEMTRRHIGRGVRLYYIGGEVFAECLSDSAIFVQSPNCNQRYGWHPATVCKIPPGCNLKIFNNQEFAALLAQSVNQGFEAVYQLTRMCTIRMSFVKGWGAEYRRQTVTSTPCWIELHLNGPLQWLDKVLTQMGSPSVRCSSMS

Columns and labels:
[1] = molecular target: p300 (human (endogenous in SGC-7901 and HGC-27)) (UniProt Q09472); assay: co-IP; lysates of SGC-7901 and HGC-27 cells immunoprecipitated with anti-SMAD2 or anti-p300 antibody overnight at 4°C on protein A/G magnetic beads; western blot with the respective other antibody (forward and reverse co-IP)
[2] = molecular target: SMAD2 (human (endogenous in SGC-7901 and HGC-27)) (UniProt Q15796); assay: as above

| Substance | binding [1] | binding [2] |
| --- | --- | --- |
| SMAD2 (from UniProt Q15796 1-467) | binds | – |
| p300 (from UniProt Q09472 1-2414) | – | binds |
